Data reported in publication PMC11068012.
These are yes or no findings as the source states them, for the method shown. In cells and extracts the contact can be indirect.

Molecular target: Enhancer of Zeste [E(z)] (D. melanogaster (endogenous in larval CNS)) (UniProt P42124)
Assay: co-IP; third instar larval CNS protein extracts (1 mg per reaction; 25 mM Hepes, 0.1 mM EDTA, 12.5 mM MgCl2, 10% glycerol, 0.01% NP-40, 10 mM NaCl; sonicated), precipitated with anti-Ph or anti-E(z) overnight at 4°C on protein A/G beads, Western blot

binding: no binding
Substance: Drosophila TET (TET-GFP fusion protein from Tet-GFP knock-in flies) (from UniProt M9NEY8-5 1-2921)
